In PubChem BioAssay AID588590 (National Center for Advancing Translational Sciences (NCATS), 2011):
Out of some 390,000 compounds screened, about 4,000 (1%) were called active. Inconclusive means that the source gave no clear call. Such entries were picked first, then a sample of the others. The call rests on the fitted dose curve; in most records, active means well fitted inhibition curve with a large enough effect; inconclusive means small, poorly fitted or top-dose-only effect, or another doubt; inactive means no such curve, though single readings can be large or run the other way. Where the call is inconclusive, the potency comes from a doubtful curve fit.

The chains behind the UniProt entries cited, without tags or fusion partners. Where a name states a change or a piece, a line headed by the entry shows the natural chain unless it says otherwise.
UniProt Q9UNA4: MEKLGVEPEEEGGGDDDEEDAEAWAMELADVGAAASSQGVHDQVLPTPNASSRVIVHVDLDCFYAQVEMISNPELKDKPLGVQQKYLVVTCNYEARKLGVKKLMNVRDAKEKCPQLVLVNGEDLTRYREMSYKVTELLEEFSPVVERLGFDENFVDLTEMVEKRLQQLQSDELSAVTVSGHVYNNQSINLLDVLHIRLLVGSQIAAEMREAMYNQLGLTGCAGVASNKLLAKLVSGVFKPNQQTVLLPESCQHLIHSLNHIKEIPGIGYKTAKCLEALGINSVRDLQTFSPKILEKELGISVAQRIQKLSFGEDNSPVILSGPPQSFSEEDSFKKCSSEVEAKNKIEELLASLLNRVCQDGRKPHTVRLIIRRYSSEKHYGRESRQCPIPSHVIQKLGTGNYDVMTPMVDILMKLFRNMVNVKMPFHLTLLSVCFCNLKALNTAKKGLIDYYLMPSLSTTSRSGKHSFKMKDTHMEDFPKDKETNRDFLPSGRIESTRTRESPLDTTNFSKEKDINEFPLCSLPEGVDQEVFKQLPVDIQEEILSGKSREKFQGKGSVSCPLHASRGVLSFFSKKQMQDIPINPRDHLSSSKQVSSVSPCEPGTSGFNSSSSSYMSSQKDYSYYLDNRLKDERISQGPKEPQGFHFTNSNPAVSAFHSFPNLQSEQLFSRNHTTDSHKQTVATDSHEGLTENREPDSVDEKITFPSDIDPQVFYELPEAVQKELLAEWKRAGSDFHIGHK

These molecules were tested against DNA polymerase iota (Homo sapiens) (UniProt Q9UNA4) (assay: qHTS for Inhibitors of Polymerase Iota). Conditions: Pol iota fluorescent replication assay, 10 min; series mostly up to 115 µM; activity, negative = inhibition: at the top concentration.
Procedure, shortened: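 Pol iota at 10 nM preincubated 15 min with compounds at room temperature; reaction started with fluorescent substrate, 50 nM final. Fluorescence read kinetically at 0 and 10 min; buffer-only wells as negative control.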
Potency means the concentration at half of the fitted maximal effect.

activity, negative = inhibition, inactive:
Cc1cc(=O)n(C)c(=O)n1CCCCOc1cccc([N+](=O)[O-])c1 5.34%
O=C1NC(c2cccc([N+](=O)[O-])c2)Oc2ccccc21 (stereo not given) 26.8%
COc1cnc(-c2ccccn2)nc1N(C)C 54.1%
Cc1nc2ccc([N+](=O)[O-])cc2c(=O)n1Cc1cccc(Br)c1 20%
COc1ccc(OC)c(CCNc2ncnc3onc(-c4ccc(F)cc4)c23)c1 1.88%
Cc1cc[n+](CCC2CCCCC2)cc1 -12.1%
Cc1cccc(-c2nnn3c2nc(NCCc2ccc(S(N)(=O)=O)cc2)c2cc(Cl)ccc23)c1 36.3%

Potency, inconclusive:
O=C1c2ccccc2C(=O)c2c1cccc2N1CCCC1 31.6 µM [inhibitor, partial curve, poor fit]
C#CCOc1ccc(-c2nnc(Nc3cccc(C)c3)c3ccccc23)cc1 89.1 µM [inhibitor, single point]
O=C1C2C3C=CC([C@@H]2C(=O)N1C1CC1)[C@H]1C(=O)N(C2CC2)C(=O)C31 (stereo not given in full) 5.01 µM [inhibitor, single point]
NS(=O)(=O)c1ccc(N2C(=O)C3CC=CCC3C2=O)cc1 (stereo not given) 70.8 µM [inhibitor, partial curve]
COc1ccc(Cc2nnc(NC(=O)c3ccc(OC(C)=O)cc3)s2)cc1OC 31.6 µM [inhibitor, partial curve, poor fit]
O=C(O)c1ccc(C2NCC(c3ccccc3Cl)c3c2[nH]c2ccccc32)cc1 (stereo not given) 35.5 µM [inhibitor, full curve]
C/C(=N\Nc1cccc(C(=O)O)c1)c1ccc2c(c1)Nc1ccccc1S2 15.8 µM [inhibitor, full curve]
COc1ccccc1Oc1nc(-c2cccnc2)nc2ccccc12 39.8 µM [inhibitor, single point]
COc1ccccc1NC(=O)Nc1nc(CC(=O)NCc2ccc(F)cc2)cs1 39.8 µM [inhibitor, single point]
COc1cccc(NC(=O)c2ccccc2-c2nc(-c3ccccc3)no2)c1 56.2 µM [inhibitor, partial curve, poor fit]
Cn1c(=O)c2c(ncn2CC(=O)N/N=C/C=C/c2ccco2)n(C)c1=O 15.8 µM [inhibitor, full curve, poor fit]

Two records drawn at random from those above:
Potency, inconclusive:
COc1ccccc1NC(=O)Nc1nc(CC(=O)NCc2ccc(F)cc2)cs1 39.8 µM [inhibitor, single point]
C#CCOc1ccc(-c2nnc(Nc3cccc(C)c3)c3ccccc23)cc1 89.1 µM [inhibitor, single point]

Following part:

Potency, active:
CCCCc1cc(=O)oc2cc(C)c(CN3CCCC3)c(O)c12 11.2 µM
CCN(CC)c1ccc(N=Cc2ccc([N+](=O)[O-])o2)cc1 15.8 µM
